Test results reported in patent US10233209B2, “Inhibitors of the farnesoid x receptor and uses in medicine” (The United States of America, as represented by the …, priority 2013, dated 2019).

Test system: HFD-induced obese mice
Test: Gly-MCA in C57BL/6N mice made obese by 12 weeks of high-fat diet
Assay type: in vivo, mouse
Details: 5 mg/kg, 6 weeks
Description: High-fat diet (HFD) (60% kcal consisting of fat) was purchased from Bioserv. […] Fxr^fl/fl and Fxr^ΔIE (Kim et al., J. Lipid Res. 48:2664-2672, 2007) mice were backcrossed with C57BL/6N mice for over 10 generations. For the antibiotic (the combination of bacitracin, neomycin, and streptomycin) study, male C57BL/6N mice from 6 weeks of age were fed a high-fat diet (“HFD) and administered 0.1% (w/v) of each compound (the combination of bacitracin, neomycin, and streptomycin) in the drinking water. […] For TβMCA in vivo, male C57BL/6N mice from 6 weeks of age were fed a HFD and treated with the antibiotics (0.1% of each compound of bacitracin, neomycin, and streptomycin combination) for 3 days. Vehicle (saline), TCA (400 mg/kg body weight, dissolved in saline) or a combination of TCA and TβMCA (400 mg/kg body weight of each compound, dissolved in saline) were orally administered to the mice and followed by a second dose 12 h later. The mice were killed 2 h later for tissue collection. For the Gly-MCA study, Gly-MCA was custom synthesized. […] Cumulative food intake and TEEbal were measured for 1 week in vehicle and Gly-MCA-treated mice from 6 to 7 weeks of HFD. TEEbal was measured as previously described (Ravussin et al., Int. J. Obesity 37:399-403, 2013).

In the case of `C[C@H](CCC(=O)NCC(=O)O)[C@H]1CC[C@H]2[C@@H]3[C@@H](O)[C@@H](O)[C@@H]4C[C@H](O)CC[C@]4(C)[C@H]3CC[C@]12C` [Gly-MCA, glycine-β-muricholic acid], the “levels of TαMCA and TβMCA in ileum” value is reported as “significantly enhanced”.
